# Source: paper PMC7819943, “Rice protein-binding microarrays: a tool to detect cis-acting elements near promoter regions in rice”
# The list shows a part of the results.
# Biological target: T1, OsSMF1 (Oryza sativa, UniProt Q6ZLB0 1-436)
# T1 sequence: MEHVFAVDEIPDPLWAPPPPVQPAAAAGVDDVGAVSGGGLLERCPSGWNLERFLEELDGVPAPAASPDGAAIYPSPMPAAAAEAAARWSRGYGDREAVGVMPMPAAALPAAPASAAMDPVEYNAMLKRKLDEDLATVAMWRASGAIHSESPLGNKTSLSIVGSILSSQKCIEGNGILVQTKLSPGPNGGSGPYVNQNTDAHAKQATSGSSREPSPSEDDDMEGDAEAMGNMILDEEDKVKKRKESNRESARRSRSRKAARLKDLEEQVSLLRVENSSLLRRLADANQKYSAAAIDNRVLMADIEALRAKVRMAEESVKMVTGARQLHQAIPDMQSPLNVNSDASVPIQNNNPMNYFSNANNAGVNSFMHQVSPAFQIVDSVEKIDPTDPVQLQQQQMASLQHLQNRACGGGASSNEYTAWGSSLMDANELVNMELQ
# Assay: protein-binding microarray (RPBM); PBS, 2% BSA, 51.3 ng/ul salmon testes DNA, 50 uM zinc acetate, 200 nM TF, 25 C, 1 h; high values mean tight binding
# Conditions: protein: recombinant; tags: N-terminal polyhistidine and DsRed monomer fusion (pET32a); chain copies: 2; label: CyDye5-dUTP incorporated in the synthesized complementary strand; 3' TTTTT single-stranded linker to array surface; dsDNA, one strand shown
# How it was run: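 Polyhistidine-tagged DsRed fusions of transcription factors, joined at the N-terminus, were expressed in E. coli BL21-CodonPlus and isolated on Ni–NTA. They were incubated at 200 nM for 1 h at 25 °C on a custom Agilent array, double-stranded and BSA-blocked, in PBS with 2% BSA, salmon testes DNA and 50 µM zinc acetate. The binding signal is per-feature fluorescence intensity (arbitrary units) read on an Axon 4000B scanner after washing.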
row,Sequence,binding signal
1,TTCCCGCCACCAACGCCTCGCGTCGCTGACGAAGTTGCTCCGGAGTCACCTAGTGCAG,3980 fluorescence intensity (a.u.)
2,TGTTTGTCGTGACTCAGCTTAGTTGTTGCTGTTGTTGAGCCGGAGTCACCTAGTGCAG,17300 fluorescence intensity (a.u.)
3,GGCCTTGCCTATATAAAGCCGACACGGACGCCACGCCACCCGGAGTCACCTAGTGCAG,7200 fluorescence intensity (a.u.)
4,TTGTTTACTGGTCCGTCCTAGCTGTGAGCCCGTGCGGCCACGGAGTCACCTAGTGCAG,3160 fluorescence intensity (a.u.)
5,AGCCAGAGAGTGAGGCCACGGCTATCTATACACTATAGCTCGGAGTCACCTAGTGCAG,5970 fluorescence intensity (a.u.)
6,GATCCAAATGCGTCTATTGTCCTTGACGCGGCAAGAGGATCGGAGTCACCTAGTGCAG,3750 fluorescence intensity (a.u.)
7,CATAATATAAGACATAATCAAACTTAGCACTGTCTTCAAACGGAGTCACCTAGTGCAG,3150 fluorescence intensity (a.u.)
8,TGTGTGATTGTGACAAATCAACTGTACATTCAAATCATCACGGAGTCACCTAGTGCAG,3650 fluorescence intensity (a.u.)
9,TACTGCCACGTAGGCGCCACGTCAGCGAAACCGCCCTCCACGGAGTCACCTAGTGCAG,58100 fluorescence intensity (a.u.)
10,TTGTCAAGTGATAAGATGGTATGACCGTATCGTTTTGTCGCGGAGTCACCTAGTGCAG,3420 fluorescence intensity (a.u.)
11,CTGAAGTGAGGGAGGGGAGGAGGTGGTGGTGGTGGGGAAGCGGAGTCACCTAGTGCAG,4190 fluorescence intensity (a.u.)
12,TCGCCATCATCATGCCTAACCAAGTTTAGGCCCTAATCAACGGAGTCACCTAGTGCAG,3760 fluorescence intensity (a.u.)
13,AGCTCAAGCACCACATCTCTTCTCCAGTGACGTCAGAGGACGGAGTCACCTAGTGCAG,8860 fluorescence intensity (a.u.)
14,CTGTGGGACCCACCACTAAAATGACACATGCCGTTGATTGCGGAGTCACCTAGTGCAG,3170 fluorescence intensity (a.u.)
15,ATACAAGGAAACGTAATACCTAAGTCATGATCTGTTACATCGGAGTCACCTAGTGCAG,3290 fluorescence intensity (a.u.)
16,AGAACCTGAGTGGGCGGACGGCGCTGCACATGGCGGCGGCCGGAGTCACCTAGTGCAG,3480 fluorescence intensity (a.u.)
17,CCAGCTGCGGTACTTACATGTAGTATCATGTATGGATTAACGGAGTCACCTAGTGCAG,30700 fluorescence intensity (a.u.)
18,AAGTTTCTACTCATGCGTTGGCAAGAATTAGCACATTCAGCGGAGTCACCTAGTGCAG,4210 fluorescence intensity (a.u.)
19,GCTGCCGCCGACCAGCCCGCCTACGGCGATCGCCGGCCGTCGGAGTCACCTAGTGCAG,3290 fluorescence intensity (a.u.)
20,TTATTTGTGACGTACTCCATCCGTCGAATAAATATCAACACGGAGTCACCTAGTGCAG,3720 fluorescence intensity (a.u.)
21,CTCAACTATCTCTCGAGTATGATTCACGTCCTTCAACCACCGGAGTCACCTAGTGCAG,4760 fluorescence intensity (a.u.)
22,GTCATGGCGCCGGGTTTCATCTTTCAAACGGGGCATTGAACGGAGTCACCTAGTGCAG,3200 fluorescence intensity (a.u.)
23,ACTCATCGCCACGTTGCTAATTTAGCTGACTTTGTCAACTCGGAGTCACCTAGTGCAG,6990 fluorescence intensity (a.u.)
24,TAGCTCTCGCCCCGGAAGACGCCACCCAGCGATCACTTCTCGGAGTCACCTAGTGCAG,3660 fluorescence intensity (a.u.)
25,CCGGCAGCGAGCCATGAGTGGCGGCATGTCACGTTCCGCCCGGAGTCACCTAGTGCAG,3420 fluorescence intensity (a.u.)
26,ACAGACACCCCTCAAAGGACCTGACGTCCCCGTCGGTCCACGGAGTCACCTAGTGCAG,4010 fluorescence intensity (a.u.)
27,CTATATCCTCTGTTCGTCACTGCCTTCCTCTCCAAGTCCACGGAGTCACCTAGTGCAG,3530 fluorescence intensity (a.u.)

# Not a retest: an excerpt of the list.
row,Sequence,binding signal
3,GGCCTTGCCTATATAAAGCCGACACGGACGCCACGCCACCCGGAGTCACCTAGTGCAG,7200 fluorescence intensity (a.u.)
4,TTGTTTACTGGTCCGTCCTAGCTGTGAGCCCGTGCGGCCACGGAGTCACCTAGTGCAG,3160 fluorescence intensity (a.u.)
5,AGCCAGAGAGTGAGGCCACGGCTATCTATACACTATAGCTCGGAGTCACCTAGTGCAG,5970 fluorescence intensity (a.u.)
6,GATCCAAATGCGTCTATTGTCCTTGACGCGGCAAGAGGATCGGAGTCACCTAGTGCAG,3750 fluorescence intensity (a.u.)
7,CATAATATAAGACATAATCAAACTTAGCACTGTCTTCAAACGGAGTCACCTAGTGCAG,3150 fluorescence intensity (a.u.)
8,TGTGTGATTGTGACAAATCAACTGTACATTCAAATCATCACGGAGTCACCTAGTGCAG,3650 fluorescence intensity (a.u.)
9,TACTGCCACGTAGGCGCCACGTCAGCGAAACCGCCCTCCACGGAGTCACCTAGTGCAG,58100 fluorescence intensity (a.u.)
10,TTGTCAAGTGATAAGATGGTATGACCGTATCGTTTTGTCGCGGAGTCACCTAGTGCAG,3420 fluorescence intensity (a.u.)
11,CTGAAGTGAGGGAGGGGAGGAGGTGGTGGTGGTGGGGAAGCGGAGTCACCTAGTGCAG,4190 fluorescence intensity (a.u.)
12,TCGCCATCATCATGCCTAACCAAGTTTAGGCCCTAATCAACGGAGTCACCTAGTGCAG,3760 fluorescence intensity (a.u.)

# Next records follow:

row,Sequence,binding signal
1,TGCAATTTTACTTTACCTCCGTGAGGGGCAGCACATTTTGCGGAGTCACCTAGTGCAG,4050 fluorescence intensity (a.u.)
2,TGTCATACATGAGGGAGAGCTCCATCTCCATCAGCGTCCACGGAGTCACCTAGTGCAG,3330 fluorescence intensity (a.u.)
3,TGGCAAATAGTTCCGTGATGTCAGCTTGGAAGCATCCTGCCGGAGTCACCTAGTGCAG,6410 fluorescence intensity (a.u.)
4,GAGCAATTAGGTGGTATAGCCAACACACGTAACTACAAGGCGGAGTCACCTAGTGCAG,3610 fluorescence intensity (a.u.)
5,GTGATCGCGAGCTCCGCGGTCGGACACGTCGCCGAGGTCGCGGAGTCACCTAGTGCAG,3470 fluorescence intensity (a.u.)
6,TCAGTTGCTGCCACCCTGCCACTGCAGAAATTACGATTCTCGGAGTCACCTAGTGCAG,3310 fluorescence intensity (a.u.)
7,CATTTTGGAGCTGCAGGACCGTCGTGGTGCCACGTGACCGCGGAGTCACCTAGTGCAG,15900 fluorescence intensity (a.u.)
8,TCGGTGCACTTGAGGTTGGCCATGACGCAACCCCTCCTCTCGGAGTCACCTAGTGCAG,6380 fluorescence intensity (a.u.)
9,AAGAAAATCCGTGCCAGCGCATCTATAAATGGACAAACTCCGGAGTCACCTAGTGCAG,37100 fluorescence intensity (a.u.)
10,TTAGTTGCAATTGGTTCTTCTTCAGAGAGGCTAATTAGTGCGGAGTCACCTAGTGCAG,3160 fluorescence intensity (a.u.)
11,CATGGTCCTACCTGTCATACACACATTACGTCTTGGAGTCCGGAGTCACCTAGTGCAG,3410 fluorescence intensity (a.u.)
12,ACATACACACACCACCACCAACATAGCTTCTTTTGTCACTCGGAGTCACCTAGTGCAG,3160 fluorescence intensity (a.u.)
13,ACACTGGCGCGCCCACGTGGAGCTCCGGGTCGTCGGCGTCCGGAGTCACCTAGTGCAG,8350 fluorescence intensity (a.u.)
14,GGGATGGCCAGATTGGAACTCAGCAGACTCGCTGATGACTCGGAGTCACCTAGTGCAG,3800 fluorescence intensity (a.u.)
15,CACATTGTCAGCAGCTAGGCTAGTAACAGGTCATCATGCCCGGAGTCACCTAGTGCAG,5090 fluorescence intensity (a.u.)
16,TTTTGGCATTTTAGACCAAAATTATTTGAAATTTCGACTGCGGAGTCACCTAGTGCAG,26400 fluorescence intensity (a.u.)
17,CTCGCCGTCGCTGCCTCGCTGGCGCCCATACCTGGAGCGACGGAGTCACCTAGTGCAG,6980 fluorescence intensity (a.u.)
18,GTTCTTGGTTAGGAATTAACATGATGTCATGGATCGAGTCCGGAGTCACCTAGTGCAG,10800 fluorescence intensity (a.u.)
19,ACACACCACGTAGCGTCACATCATCCTCATGTAACAGCCTCGGAGTCACCTAGTGCAG,5090 fluorescence intensity (a.u.)
20,AATCCTATCCTTATCTATCCACTGGACACGAAGGCAACACCGGAGTCACCTAGTGCAG,8870 fluorescence intensity (a.u.)
21,ATAGTCCGGAGTAAGAAGGATTACCTCGTTACGAAGTCACCGGAGTCACCTAGTGCAG,7440 fluorescence intensity (a.u.)
22,AGGACATGAGGGCATACACACGTTTCAAGGCCCCGTGGAACGGAGTCACCTAGTGCAG,3170 fluorescence intensity (a.u.)
23,AAAATTTCTATGTAATGTCTAATGCCATGTAAGTTTTGGACGGAGTCACCTAGTGCAG,3260 fluorescence intensity (a.u.)
24,ACGAGTCCATGACTAGCATGCGTCACTGAAACTGAAGTTGCGGAGTCACCTAGTGCAG,4750 fluorescence intensity (a.u.)
25,TATAGCTATGATATGCTTACTATTTCATATTGCTTTCATGCGGAGTCACCTAGTGCAG,3140 fluorescence intensity (a.u.)
26,GATCATACGAACCCCACCGCCACGTCTACTCCCTCGCCGCCGGAGTCACCTAGTGCAG,9250 fluorescence intensity (a.u.)
27,AGTATTTATCGTTTTAGTTAATTTGATGAATCTGTATATTCGGAGTCACCTAGTGCAG,16300 fluorescence intensity (a.u.)
